US10195282B2, “Use of alginate formulation for intraincisional drug delivery” (UNIVERSITY OF SOUTHERN CALIFORNIA, priority 2014, dated 2019)
Part of at least one peptide drawing is inferred or uncertain, most often the ends. Non-standard residues stand in square brackets, D forms with d. Residues, ends and D or L forms follow the SMILES beside them. Nle = CCCC[C@H](N)C(=O)O

What was measured:
[1] = tested on: full thickness incision wounds in a rat model; experiment: Scar formation dose-response of NorLeu3-A(1-7) in 2.5% alginate crosslinked with 5 mM CaCl2 (Example 3); type: in vivo, Sprague Dawley rats; conditions: for number of wounds without apparent scar: day 12
Experimental: This example was designed to determine the formation and remodeling of scar by clinical and histological evaluations in full thickness incision wounds in a rat model. Various doses of active ingredient were delivered in 2.5% alginate crosslinked with 5 mM CaCl2. • Species: • Sprague Dawley • Female (n=5/group for histology; 3/group for tensile strength) • Parameters Measured: • Appearance of Healing Wound (Gross and Histological of Dense Collagen by Image J) • Tensile Strength • Central, Blinded Adjudication of Photos on Day 21 • Photographic serial imaging • Experimental Groups: Surgical control, vehicle (2.5% alginate crosslinked with 5 mM CaCl2) and 2.5% alginate crosslinked with 5 mM CaCl2 with 0.3, 1, 3 or 5 mg/ml DSC127) Methods
Alginate was supplied by FMC BioPolymer. The alginate formulation was prepared by the following method. Sterile snap top polypropylene tubes (10×13 mm) were pre-weighed and an aliquot of alginate added per tube. The tube was then post-weighed and the amount of diluent (0.005 M phosphate buffer with various concentrations of DSC127) added to make the percentage formulation listed. 5 mM CaCl2 was added to 2.5% alginate to crosslink the alginate.
During the experimental period, Sprague Dawley rats, 200-225 grams, were housed one per cage and maintained in a central animal care facility with a 12-hour light/dark cycle. Water and standard rodent laboratory chow was supplied ad libitum. All animals used for this study were managed as per guidelines of Office of Animal Welfare as defined by the National Research Council's criteria for humane care. The study protocols were approved by the University of Southern California's Institutional Animal Care and Use Committee before initiation of the studies. Thirty animals were placed in the initial study (5/group). An additional 19 animals were place in a satellite study (3 in the surgical control group and 4/group in the alginate/peptide groups). Animals were euthanized at 21 days postoperatively. The six tests groups that were evaluated are: surgical control, vehicle control and 30, 100, 300 or 500 μg/wound of NorLeu3-A(1-7) in the vehicle. Two full thickness incisions (3 cm in length) were made on the surgically prepared dorsal surface of the rat under aseptic conditions for the main study. For the satellite study, one full thickness incision will be made on the surgically prepared dorsal surface of the rat. The wound was closed with interrupted sutures (4-0 Ethilon sutures, with a 19 mm, ⅜ c, reverse cutting multipass needle). The animals were monitored for breathing, urination and movement during the postoperative interval. […] During the first two weeks after surgery, scabbing, dehiscence and inflammation were assessed. Twice weekly starting in the second week after surgery the incisions were assessed for scar tissue by two trained individuals using the Hollander scale (see detail below). Each observer determined the scarring scale independently (the other observer was not in the room at the time of scar evaluation) at two separate settings on separate forms allowing for calculation of inter and intra observer variation. […]
On days 21 after surgery, 5 rats were euthanized by CO2 asphyxiation and tissues harvested for histological preparation using hematoxylin and eosin stains as well as Masson's trichrome stain for collagen. Scar formation was assessed histologically. […]
Scabbing was assessed on a 4-point scale (0,1,2,3) for none, mild, moderate and severe, respectively. […]

[2] = tested on: full thickness incision wounds in a rat model; experiment: Formation and remodeling of scar, three vehicles with and without NorLeu3-A(1-7) (Example 2); type: in vivo; conditions: 100 μg/wound NorLeu3-A(1-7) (1 mg/ml) in vehicle, up to day 21

## CCCC[C@H](NC(=O)[C@H](CCCNC(=N)N)NC(=O)[C@@H](N)CC(=O)O)C(=O)N[C@@H](Cc1ccc(O)cc1)C(=O)N[C@H](C(=O)N[C@@H](Cc1c[nH]cn1)C(=O)N1CCC[C@H]1C(=O)O)[C@@H](C)CC [NorLeu3-A(1-7), Asp-Arg-Nle-Tyr-Ile-His-Pro] (H-DR[Nle]YIHP-OH; N-terminus and C-terminus assumed)
[1]; all doses (0.3, 1, 3, 5 mg/ml) in cross-linked alginate, day 21
  area of scar in the incision site: reduced
[1]; 0.3 mg/ml in 2.5% alginate crosslinked with 5 mM CaCl2
  number of wounds without apparent scar: early increase
[1]; 1 mg/ml in 2.5% alginate crosslinked with 5 mM CaCl2
  number of wounds without apparent scar: early increase
[1]; 3 mg/ml in 2.5% alginate crosslinked with 5 mM CaCl2
  number of wounds without apparent scar: not observed
[1]; 5 mg/ml in 2.5% alginate crosslinked with 5 mM CaCl2
  number of wounds without apparent scar: not observed
[2]
  scar reduction: reduce scar reduction
